Patent US12427209B2 (Provincial Health Services Authority, priority 2018, dated 2025)

Legend:
[1] = general procedure: Fmoc solid-phase peptide synthesis; Wang resin; HBTU/DIPEA; NHS esters for solution conjugations; conditions: whole synthesis, scale 16.5 μmol
[2] = general procedure: Fmoc solid-phase peptide synthesis; O-bis-(aminoethyl)ethyleneglycol trityl resin (LLP2A); Wang resin (BK); HBTU/DIPEA; NHS esters for solution conjugations; conditions: whole synthesis

In the case of “DOTA-((L)-Lys-E-1,2,3-triazole-N,N-dimethyl-ammoniomethyl-trifluoroborate)-4-amino-1-carboxymethyl-piperidine-Lys-Arg-Pro-Hyp-Gly-Cha-Ser-Pro-Leu-COOH”, the isolated mass [1] is reported as 1.7 mg, the isolated yield [1] is reported as 5% and the difficulty met [2] is reported as “HPLC purification of bradykinin derivatives has proven to be difficult”. The isolated yield [2] was 5.5%.
